Measurements reported in PubChem BioAssay AID590 (National Center for Advancing Translational Sciences (NCATS), 2007).
Hit rate of the full screen: of about 59,000 compounds, about 6,500 (11%) were called active. The inconclusive results got no clear call from the source; some entries with a clear call stand among them for comparison. Cut-off read from the data, not from the text of the source: active = max dye-equivalent concentration above about 10 nM; inconclusive = mostly about 1.1 nM to 9.6 nM; inactive = weaker than that. Peptide text beside a SMILES is read from it. * marks the point of attachment. OBn = c1ccc(CO*)cc1

Assay: qHTS Assay for Spectroscopic Profiling in A350 Spectral Region
Settings: Compound autofluorescence, 340/450 nm, Alexa 350 dye-equivalents; stronger effect = higher value

Row | Structure (SMILES) | max dye-equivalent concentration
1 | CCOC(=O)Cn1c(=N)n(Cc2ccccc2)c2ccccc21 | inactive
2 | CCOc1ccc(-c2nnc3ccc(SCC(=O)N4CCN(c5ccccc5)CC4)nn23)cc1 | active: 26 nM
3 | O=C(COc1ccc(Cl)cc1Cl)NCCCn1ccnc1 | inconclusive: 1.1 nM
4 | Cc1nc2ccc(S(=O)(=O)NCC(=O)N3CCN(c4ccccn4)CC3)cc2s1 | inactive
5 | CN1CCN(C2=NC3(CCCC3)C(C#N)C(=O)N2)CC1 (stereo not given) | inactive
6 | CC1(C)C2CCC1(C)C(NC1=NCCC1)C2 (stereo not given) | inconclusive: 6 nM
7 | COC(=O)c1cc(NCc2cccs2)ccc1N1CCOCC1 | inactive
8 | C=CCn1c(SCc2ccc(OC)cc2)nnc1-c1cccnc1 | inconclusive: 1.2 nM
9 | CCOC(=O)c1c(-c2ccncc2)csc1N | inconclusive: 1.3 nM
10 | Cn1c(CSCc2ccc(F)cc2)nnc1SCC(=O)Nc1nccs1 | inactive
11 | Cc1ccc(S(=O)(=O)Nc2cc(C(=O)O)ccc2N2CCCCC2)cc1 | inconclusive: 7 nM
12 | Cc1cc(C)n(-c2nc3ccccc3c(=O)n2OCC(=O)N(C)C)n1 | inconclusive: 3.5 nM
13 | c1ccc(Nc2ncncc2-c2ccc3c(c2)OCO3)cc1 | inactive
14 | CC(=O)S[C@H]1CC2=CC(=O)CC[C@@]2(C)[C@H]2CC[C@@]3(C)[C@H](CC[C@]34CCC(=O)O4)[C@@H]12 | inconclusive: 1.9 nM
15 | CC(C)(C)C(=O)Nc1c2c(nc3c1CCC3)CCCC2 | inconclusive: 2 nM
16 | COc1ccc(-c2coc3cc(O[C@@H]4O[C@@H](CO)[C@@H](O)[C@@H](O)[C@H]4O)cc(O)c3c2=O)cc1 | inactive
17 | N#Cc1sc2nc3c(c(-c4cccnc4)c2c1N)CCC3 | inconclusive: 3.1 nM
18 | O=C1c2cccnc2C(Nc2ccc(S(=O)(=O)N3CCCCCC3)cc2)N1Cc1ccccc1 (stereo not given) | inactive
19 | CCN(CC)CCNC(=O)Cn1c(-c2ccccn2)nc2ccccc21 | inconclusive: 2 nM
20 | Cn1nnc(C(O)CNCc2cccs2)n1 (stereo not given) | inconclusive: 4 nM
21 | CC(C)COc1ccc(C(=O)N(Cc2ccco2)C2CCS(=O)(=O)C2)cc1 (stereo not given) | active: 170 nM
22 | CN(C)Cc1ccccc1-c1cc(-n2ccnc2)ncn1 | inconclusive: 1.4 nM
23 | COc1ccc(C2C3=C(Nc4ncnn42)c2ccccc2CC3)cc1OC (stereo not given) | inconclusive: 6.8 nM

Row | Structure (SMILES) | max dye-equivalent concentration
24 | CCOC(=O)c1ccc(OCC(=O)c2ccc(O)cc2O)cc1 | inconclusive: 1.4 nM
25 | O=C(NC[C@H]1CCCCN1)c1cc(OCC(F)(F)F)ccc1OCC(F)(F)F | inconclusive: 3.9 nM
26 | Cc1cccc(NC(=O)CN(C)S(=O)(=O)c2ccc(Cl)cc2)n1 | inconclusive: 1.4 nM
27 | Cc1c(OCc2nn[nH]n2)ccc2c3c(c(=O)oc12)CCC(C)C3 (stereo not given) | active: 23 nM
28 | Cn1c(=O)n(C)c2cc(NC(=O)c3cc4ccccc4o3)ccc21 | inactive
29 | Clc1ccc(-c2nnc3sc(Cc4cccs4)nn23)c(Cl)c1 | inactive
30 | Cc1nc(/C=[N+](\[O-])C(C)(C)/C=N/O)n(O)c1C | inconclusive: 3.8 nM
31 | Nc1nc(C2CCCN2S(=O)(=O)c2ccc(Cl)cc2)cs1 (stereo not given) | inactive
32 | Cn1c(=O)c(CCc2ccccc2)nc2cnc(N3CCNCC3)nc21 | active: 130 nM
33 | COC(=O)c1ccc(C(=O)OC)c(NC(=O)c2oc(C)nc2C)c1 | inconclusive: 5.2 nM
34 | Cc1cc(C(=O)CN2C(=O)c3ccccc3S2(=O)=O)c(C)n1CC1CCCO1 (stereo not given) | inconclusive: 7.4 nM
35 | N#Cc1cc2c(=O)n3ccccc3nc2n(CCCN2CCOCC2)c1=O | active: 15000 nM
36 | COc1ccc(CCNC(=O)c2oc3ccc(S(=O)(=O)N4CCOCC4)cc3c2C)cc1OC | inconclusive: 1.2 nM
37 | CCn1cc(C2Nc3ccccc3C(=O)N2O)c(C)n1 (stereo not given) | inconclusive: 6.8 nM
38 | Cc1cc(N2CCCC2)n2nc(C)c(-c3ccccc3)c2n1 | active: 220 nM
39 | COc1cc(-c2nnc3sc(-c4ccco4)nn23)cc(OC)c1OC | inconclusive: 1.1 nM
40 | CCOC(=O)/C=C1\SCC(=O)N1CC(=O)Nc1ccccc1OC(F)F | inconclusive: 1.5 nM
41 | Cc1cc2c(c(=O)n1CCCn1ccnc1)C(c1ccco1)C(C#N)=C(N)O2 (stereo not given) | inconclusive: 4.6 nM
42 | O=C(Cn1nc(Cl)nc1Cl)c1cc2ccccc2oc1=O | active: 240 nM
43 | CSCC[C@H](NC(=O)NCCc1ccc(F)cc1)C(=O)O | inconclusive: 1.3 nM
44 | CCN(CC)C(=O)CSc1nc2ccccc2c(=O)n1-c1ccccc1OC | inconclusive: 1.3 nM
45 | CC(C)OCCCNC(=O)CCN1C(=O)COc2ccccc21 | inconclusive: 2.8 nM
46 | COC(=O)C1C(=O)C2=C(CC1C)NC(C)=C(C(=O)OCc1ccc(OC)cc1)C2c1ccc(C)o1 (stereo not given) | inconclusive: 9.2 nM

3 entries from above, arranged by count of non-hydrogen atoms, ascending:
Row | Structure (SMILES) | max dye-equivalent concentration
29 | Clc1ccc(-c2nnc3sc(Cc4cccs4)nn23)c(Cl)c1 | inactive
1 | CCOC(=O)Cn1c(=N)n(Cc2ccccc2)c2ccccc21 | inactive
2 | CCOc1ccc(-c2nnc3ccc(SCC(=O)N4CCN(c5ccccc5)CC4)nn23)cc1 | active: 26 nM

Further compounds:

Row | Structure (SMILES) | max dye-equivalent concentration
47 | COc1ccc(N2CCN(C(c3cccs3)c3nnnn3C3CCCC3)CC2)cc1 (stereo not given) | inactive
48 | COc1ccc(C2CC(=O)C3=C(C2)Nc2ncnn2C3c2ccccc2C)cc1 (stereo not given) | active: 68 nM
49 | CC1CCN(CC(=O)N2c3ccccc3Sc3cc4ccccc4cc32)CC1 | inconclusive: 5.9 nM
50 | CCOC(=O)C1=C(N)N(c2ccc(N3CCCCC3)cc2)C(=O)C1 | inconclusive: 1.2 nM
51 | CCOC(=O)N1CC=C2C(C#N)=C(N)C(C#N)(C#N)[C@H](c3ccccc3OCC)[C@H]2C1 | active: 64 nM
52 | C=CCn1c(=N)c(C(=O)OCC)cc2c(=O)n3cccc(C)c3nc21 | active: 9200 nM
53 | CC1=C(C(=O)OC(C)C)C(c2ccccc2Cl)CC(=O)N1 (stereo not given) | inactive
54 | COc1cc([C@H](O)CO)ccc1O | inactive
55 | Cn1cccc1-c1nc2ccccc2n1Cc1ccccc1 | inactive
56 | CN(C)c1ccc(C2NCCS2)cc1 (stereo not given) | inconclusive: 1.1 nM
57 | S=c1nc(-c2nc(=S)[nH]c3c2CCCCCCCCCC3)c2c([nH]1)CCCCCCCCCC2 | inactive
58 | Cc1occc1C(=O)NCCCCNC(=O)c1ccoc1C | inconclusive: 4.1 nM
59 | Cc1ccc(C(=O)/C=C/Nc2ccccc2C(N)=O)o1 | active: 73 nM
60 | CCC(C)Sc1nnc(-c2c[nH]c3ccccc23)n1CCOC (stereo not given) | inconclusive: 1.9 nM
61 | Cc1sc(NC(=O)c2ccc(Cl)s2)c(C(N)=O)c1C | active: 86 nM
62 | Oc1ccc2ccccc2c1C=NCc1c(O)ccc2ccccc12 | inconclusive: 2.5 nM
63 | O=C(c1cc2ccccc2oc1=O)N1CCCN(C(=O)c2cc3ccccc3oc2=O)CC1 | inconclusive: 2.2 nM
64 | Cc1ccc(Cl)cc1N1CCN(C(=O)CCS(=O)(=O)c2cccc3nonc23)CC1 | inactive
65 | Cc1cc(=O)oc2cc(OCC(=O)OCc3nnc(-c4ccccc4)o3)ccc12 | active: 17 nM
66 | COc1ccc(C(=O)N2CCC3(CCCN(C(c4ccccc4)c4ccccc4)C3)CC2)cc1 | inactive
67 | Cc1ccc2[nH]c3c(NCCN4CCOCC4)ncnc3c2c1 | inconclusive: 1.4 nM
68 | COc1cc(OC)nc(NC(=O)COC(=O)C2CCCCC2)n1 | inconclusive: 1.1 nM
69 | O=C(Cc1cccs1)Nc1ccc(C(=O)O)cc1 | inconclusive: 2 nM

Row | Structure (SMILES) | max dye-equivalent concentration
70 | COCc1cc(C)nc(Nc2ccccc2C)c1C#N | inconclusive: 1.6 nM
71 | CCC(C)C(N)C(=O)NC(CCC(=O)OCc1ccccc1)C(N)=O (stereo not given) (H-Ile-Glu(OBn)-NH2; configuration not given here) | inconclusive: 1.1 nM
72 | Clc1ccccc1NN(Cc1ccccn1)c1ccccc1Cl | inactive
73 | C=CCn1c(=O)c2ccccc2n2c(Sc3nnnn3-c3ccccc3)nnc12 | inactive
74 | Cc1cc(C)c(NC(=O)CS(=O)CC(=O)N2CCN(c3ccccc3)CC2)c(C)c1 (stereo not given) | inconclusive: 2.8 nM
75 | CCC(=O)n1nc(NCc2ccccc2OC)nc1NCc1ccccc1OC | inactive
76 | O=C(NC1CC1)c1ccc(COc2ccc(F)cc2)o1 | inconclusive: 1.9 nM
77 | CCc1nnc(NC(=O)CSc2nc(C)c3c(c2C#N)CCCC3)s1 | inconclusive: 8 nM
78 | COc1ccc(N2CCN(C(=O)CSc3nnc4nc(C)cc(C)n34)CC2)cc1 | inconclusive: 1.2 nM
79 | COc1ccc(CN2CCCC(C(=O)N3CCCC3)C2)cc1 (stereo not given) | inconclusive: 2.1 nM
80 | CCn1cc(C(=O)NCc2ccco2)c(=O)c2cc(F)c(N3CCN(C(=O)c4ccco4)CC3)cc21 | active: 39 nM
81 | Cc1cc(C)c2c(=O)[nH]c(SCC(=O)Nc3ccccc3)nc2n1 | inconclusive: 2.6 nM
82 | CO[C@]1(NC(=O)Cc2cccs2)C(=O)N2C(C(=O)O)=C(COC(N)=O)CS[C@H]21 | inactive
83 | O=C(Nc1nnc(C(F)(F)F)s1)c1cccnc1 | inconclusive: 1.1 nM
84 | Cc1cc2cc3c(C)cc(=O)oc3c(C)c2o1 | active: 52 nM
85 | Cc1ccc2nc3ccc(N4CCN(C)CC4)nn3c(=O)c2c1 | active: 61 nM
86 | c1ccc2oc(NC3=NCN(CC4CCCO4)CN3)nc2c1 (stereo not given) | inactive
87 | CC(Sc1nnc2ccccn12)C(=O)Nc1ccc(Cl)cn1 (stereo not given) | inconclusive: 5.4 nM
88 | CC(NS(=O)(=O)c1ccc(OCC(=O)N2CCOCC2)cc1)c1ccccc1 (stereo not given) | inactive
89 | COc1cc(-c2nnc(SCC(=O)N(Cc3ccccc3)C(C)(C)C)o2)cc(OC)c1OC | inconclusive: 1.2 nM
90 | Cc1nc2cc(N3CCN(C)CC3)c(NC(=O)Cc3ccccc3)cc2c(=O)n1Cc1ccccc1 | inconclusive: 8.1 nM
